# Assay results from article PMC4869123 (Scientific Reports, 2016).
# The chains behind the UniProt entries cited, without tags or fusion partners. Where a name states a change or a piece, a line headed by the entry shows the natural chain unless it says otherwise.
# UniProt Q96F46: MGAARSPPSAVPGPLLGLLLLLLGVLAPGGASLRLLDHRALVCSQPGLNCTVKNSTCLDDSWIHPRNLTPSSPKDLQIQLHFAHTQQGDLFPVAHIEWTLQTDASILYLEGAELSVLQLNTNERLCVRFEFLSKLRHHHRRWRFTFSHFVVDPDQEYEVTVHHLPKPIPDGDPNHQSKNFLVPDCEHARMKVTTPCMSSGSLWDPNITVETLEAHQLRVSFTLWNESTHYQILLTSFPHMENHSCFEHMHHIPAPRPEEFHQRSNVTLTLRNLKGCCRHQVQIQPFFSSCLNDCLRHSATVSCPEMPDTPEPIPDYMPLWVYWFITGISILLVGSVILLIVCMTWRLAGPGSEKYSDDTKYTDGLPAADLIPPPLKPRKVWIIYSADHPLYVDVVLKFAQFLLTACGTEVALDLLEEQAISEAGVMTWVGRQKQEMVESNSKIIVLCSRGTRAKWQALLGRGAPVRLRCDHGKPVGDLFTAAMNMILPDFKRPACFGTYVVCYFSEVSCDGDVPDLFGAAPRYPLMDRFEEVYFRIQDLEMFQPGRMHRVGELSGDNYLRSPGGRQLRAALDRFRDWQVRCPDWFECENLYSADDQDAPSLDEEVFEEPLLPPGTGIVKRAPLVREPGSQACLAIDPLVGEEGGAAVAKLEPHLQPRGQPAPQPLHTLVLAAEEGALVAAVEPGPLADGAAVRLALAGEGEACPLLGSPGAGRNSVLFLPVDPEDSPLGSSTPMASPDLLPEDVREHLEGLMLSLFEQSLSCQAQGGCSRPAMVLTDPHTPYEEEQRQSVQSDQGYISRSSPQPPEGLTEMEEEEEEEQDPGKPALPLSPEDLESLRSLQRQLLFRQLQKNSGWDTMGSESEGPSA
# Molecular target: IL-17RA (immobilized, SPR binding assay) (human) (UniProt Q96F46)
# Test: SPR; Biacore 3000; biotinylated protein captured on a streptavidin chip (about 2500 to 3500 RUs); peptide injected at 50 μl/min, 180 s association, at least 600 s dissociation; 10 mM HEPES pH 7.4, 150 mM NaCl, 0.01% P20, 3% DMSO; single site model, global fit; both purified
binder,measurement,value
IHVTIPADLWDWINK (N-terminal acetyl) [high affinity IL-17A peptide antagonist (HAP)],binding,no binding (tested: 100 nM)

# These are yes or no findings as the source states them, for the method shown. Tags and fused reporters may be left off the sequences shown.
